In PMC11245307, “Evolutionary adaptation of an HP1-protein chromodomain integrates chromatin and DNA sequence signals” (eLife, 2024):
Substitutions are numbered along the chain they refer to. Names and notes keep the numbering of the source. These are yes or no findings as the source states them, for the method shown.

Legend:
[1] = molecular target: Rhino chromodomain, wildtype construct (Rhino residues 20-90) (D. melanogaster) (UniProt Q7JXA8); assay: SEC-MALS; about 400 μg purified protein (100 μl at 4 mg/ml) on Superdex75increase 10/300 GL; 20 mM Tris, pH 7.5, 150 mM NaCl; Wyatt Dawn Heleos-II; both purified
[2] = molecular target: Rhino chromodomain G31D (Rhino residues 20-90) (D. melanogaster) (UniProt Q7JXA8); assay: as above
[3] = molecular target: Rhino chromodomain G31A (Rhino residues 20-90) (D. melanogaster) (UniProt Q7JXA8); assay: as above
[4] = molecular target: T1, Rhino chromodomain F48A (Rhino residues 20-90) (D. melanogaster) (UniProt Q7JXA8); assay: as above
T1 sequence: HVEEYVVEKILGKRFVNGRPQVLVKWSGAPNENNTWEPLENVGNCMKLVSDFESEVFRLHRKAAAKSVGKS

[5] = molecular target: Rhino chromodomain Y24A (Rhino residues 20-90) (D. melanogaster) (UniProt Q7JXA8); assay: as above
[6] = molecular target: Rhino chromodomain W45A (Rhino residues 20-90) (D. melanogaster) (UniProt Q7JXA8); assay: as above
[7] = molecular target: Rhino chromodomain F34A/F76A double mutant (Rhino residues 20-90) (D. melanogaster) (UniProt Q7JXA8); assay: as above
[8] = molecular target: T1, Rhino chromodomain F48A (Rhino residues 20-90) (D. melanogaster); assay: condition: peptide at approximately 1 mM, protein at 100 µM; ITC; chromodomain at 100 µM, H3K9me3 peptide at approximately 1 mM; 20 mM Tris, pH 8.0, 25 mM NaCl, 2 mM β-mercaptoethanol; 20°C; MicroCal iTC200, sixteen 2.5 µl injections; both purified

B1: Rhino chromodomain, wildtype construct (Rhino residues 20-90) (domain or fragment, UniProt Q7JXA8 20-90)
chain: T1 sequence with A29F
binding [1]: no binding (tested: 100 μl at 4 mg/ml)

B2: Rhino chromodomain G31D (Rhino residues 20-90) (domain or fragment, UniProt Q7JXA8 20-90)
chain: T1 sequence with G12D, A29F
binding [2]: no binding (tested: 100 μl at 4 mg/ml)

B3: Rhino chromodomain G31A (Rhino residues 20-90) (domain or fragment, UniProt Q7JXA8 20-90)
chain: T1 sequence with G12A, A29F
binding [3]: no binding (tested: 100 μl at 4 mg/ml)

B4: Rhino chromodomain F48A (Rhino residues 20-90) (domain or fragment, UniProt Q7JXA8 20-90)
chain: T1 sequence
binding [4]: no binding (tested: 100 μl at 4 mg/ml)

B5: Rhino chromodomain Y24A (Rhino residues 20-90) (domain or fragment, UniProt Q7JXA8 20-90)
chain: T1 sequence with Y5A, A29F
binding [5]: no binding (tested: 100 μl at 4 mg/ml)

B6: Rhino chromodomain W45A (Rhino residues 20-90) (domain or fragment, UniProt Q7JXA8 20-90)
chain: T1 sequence with W26A, A29F
binding [6]: no binding (tested: 100 μl at 4 mg/ml)

B7: Rhino chromodomain F34A/F76A double mutant (Rhino residues 20-90) (domain or fragment, UniProt Q7JXA8 20-90)
chain: T1 sequence with F15A, A29F, F57A
binding [7]: no binding (tested: 100 μl at 4 mg/ml)

B8: H3K9me3 peptide (KQTAR-K[me3]-STGGK) (peptide)
peptide: KQTARKSTGGK
modifications: trimethyl-lysine K[me3] at the sixth residue of the peptide (H3K9me3)
binding [8]: no binding
